{"source": "paper PMC11909191", "biological_target": "PET100-GST (human)", "assay": "pull-down; GST-tagged protein on GST magnetic beads incubated with His-tagged protein (1-3 ug) in 500 uL binding buffer (50 mM Tris-HCl pH 7.9, 10% glycerol, 100 mM KCl, 5 mM MgCl2, 10 mM beta-mercaptoethanol, 0.1% NP-40), 2 h at 4 °C; washed with NETN buffer; immunoblot; both purified", "note": "These are yes or no findings as the source states them, for the method shown. Binding calls can cover weak binding; strength is not graded here. Where a sequence is shown, tags or fusion partners need not be part of it."}
{"binder": "MBP-pep-nc-ZNF436-AS1-His (peptide, UniProt Q8NC38 1-126) MLAVPVRLKVGSRKPEWGTNRLTSCPAKDPLDRRLQNLRDRERVPEPQRSLRPGVQEDSREHGQVPEVSDPQVDLEFVDLQAKPRYRRLILKTQIPEASDSQAAQKPQAHRQIPETTEAGRETTSN", "values": [{"measurement": "binding", "value": "binds"}]}
